Values from PubChem BioAssay AID504791 (Drosophila RNAi Screening Center, 2011)
Purpose: 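Genes of the fly required for silencing by miRNA, siRNA or endo-siRNA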 (primary screen). System: Drosophila S2-derived reporter cells. Knock-down reagent: long dsRNA against Drosophila genes, about 150-250 ng dsRNA per well (siRNA assay); about 80-120 ng (miRNA assay). Time to read-out: about 5 days (siRNA assay); about 4 days (miRNA assay). Treatment: copper sulfate induction of reporters: 25 µM (siRNA assay); 200 mM stated (miRNA assay), 1-2 days before reading. Measured: 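Per-well ratio of Renilla over firefly light, expressed relative to that plate's average ratio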. Rule for the call: 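a well was a first-pass pick when its plate-scaled ratio rose above 1.5 (siRNA assay) or 1.6 (miRNA assay), or dropped below 0.6; a gene counted only if two separate dsRNAs agreed on retest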.
The deposit covers about 23,000 reagents; below is a random part of those that have a named target and a result. Of all reagents, 199 (0.86%) are marked active. 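Plate-scaled ratios behind the calls are not deposited; printed light signals are raw; many rows marked increased or decreased are still called inactive.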 Reagents against one gene are numbered here. Names joined by + are all predicted targets of the reagent. Not given: the direction of the score.

| gene knocked down | reagent | stable siRNA reporter change | miRNA reporter change | stable assay Renilla, run 1 (luminescence) | stable assay firefly, run 1 (luminescence) | Call |
| --- | --- | --- | --- | --- | --- | --- |
| CG33107 | 1 | – | – | 9984 | 6.52e5 | inactive |
| Npc2a | 1 | – | – | 7751 | 5.45e5 | inactive |
| CG31272 | 1 | – | – | 6612 | 3.67e5 | inactive |
| CG13295 | 1 | – | – | 7760 | 5.53e5 | inactive |
| ppk23 | 1 | – | – | 5599 | 4.16e5 | inactive |
| ETHR | 1 | – | – | 9150 | 4.60e5 | inactive |
| CG4045 | 1 | – | – | 9688 | 5.48e5 | inactive |
| CG3842 | 1 | – | – | 6407 | 4.39e5 | inactive |
| CG15625 | 1 | – | – | 7351 | 3.69e5 | inactive |
| amos | 1 | – | – | 7693 | 5.74e5 | inactive |
| CG4239 | 1 | – | reporter ratio lowered past the hit cutoff | 7411 | 6.52e5 | inactive |
| Msh6 | 1 | – | – | 6978 | 2.79e5 | inactive |
| Gpxl | 1 | – | – | 5835 | 3.38e5 | inactive |
| Lcp65Ad | 1 | – | – | 7140 | 6.26e5 | inactive |
| CG8839 | 1 | – | – | 7798 | 3.50e5 | inactive |
| Sf3b3 | 1 | reporter ratio lowered past the hit cutoff | reporter ratio lowered past the hit cutoff | 13040 | 8.76e5 | active |
| CG32106 | 1 | – | – | 4512 | 3.09e5 | inactive |
| CG33969 | 1 | – | – | 6858 | 3.23e5 | inactive |
| CG13218 | 1 | – | – | 6307 | 4.58e5 | inactive |
| Bub1 | 1 | – | – | 10685 | 5.43e5 | inactive |
| Bub1 | 2 | – | – | 3392 | 2.58e5 | inactive |
| unc-5 | 1 | – | – | 5299 | 3.64e5 | inactive |
| unc-5 | 2 | – | – | 4471 | 2.90e5 | inactive |
| unc-5 | 3 | – | – | 5215 | 2.73e5 | inactive |
| P5CS | 1 | – | – | 9220 | 3.05e5 | inactive |
| P5CS | 2 | – | – | 7886 | 3.83e5 | inactive |
| CG40498 | 1 | – | – | 6591 | 4.72e5 | inactive |
| CheB53a | 1 | – | – | 6107 | 3.01e5 | inactive |
| CG10298 | 1 | – | – | 6862 | 3.43e5 | inactive |
| CG18081 | 1 | – | – | 7862 | 3.49e5 | inactive |
| RpL12 | 1 | – | – | 6390 | 4.56e5 | inactive |
| CG2701 | 1 | – | – | 8754 | 3.61e5 | inactive |
| CG42586 + CG31775 | 1 | – | – | 2312 | 2.27e5 | inactive |
| CG43345 | 1 | – | – | 7755 | 9.35e5 | inactive |
| CG31219 | 1 | – | – | 8330 | 3.32e5 | inactive |
| pirk | 1 | – | – | 8578 | 4.52e5 | inactive |
| E(var)3-9 | 1 | – | – | 6786 | 3.93e5 | inactive |
| E(var)3-9 | 2 | – | – | 4936 | 3.36e5 | inactive |
| CG6094 | 1 | – | – | 5999 | 5.53e5 | inactive |
| CG6094 | 2 | – | – | 3815 | 4.64e5 | inactive |
| CG4194 | 1 | – | – | 9289 | 4.67e5 | inactive |
| Jhbp3 | 1 | – | – | 6207 | 3.69e5 | inactive |
| Rab27 | 1 | – | – | 7552 | 4.40e5 | inactive |
| Gs1l | 1 | – | – | 7475 | 4.89e5 | inactive |
| AP-2sigma | 1 | – | – | 8749 | 3.82e5 | inactive |
| nonC | 1 | – | – | 10095 | 6.03e5 | inactive |
| nonC | 2 | – | – | 6215 | 3.17e5 | inactive |
| LpR1 | 1 | – | – | 7835 | 4.39e5 | inactive |
| LpR1 | 2 | – | – | 6934 | 4.23e5 | inactive |
| LpR1 | 3 | – | – | 7075 | 3.62e5 | inactive |
| CG34353 | 1 | – | – | 7431 | 6.33e5 | inactive |
| CG34353 | 2 | – | – | 5936 | 5.73e5 | inactive |
| CG34353 | 3 | – | – | 6018 | 4.46e5 | inactive |
| CG34353 | 4 | – | – | 5870 | 4.19e5 | inactive |
| CG34353 | 5 | – | reporter ratio lowered past the hit cutoff | 4512 | 3.99e5 | inactive |
| Or46a | 1 | – | – | 6243 | 3.33e5 | inactive |
| Or46a | 2 | – | – | 6835 | 3.52e5 | inactive |
| Or46a | 3 | – | – | 9249 | 5.59e5 | inactive |
| Cdep | 1 | – | – | 5634 | 4.71e5 | inactive |
| Cdep | 2 | – | – | 7720 | 4.57e5 | inactive |
| Cdep | 3 | – | – | 8067 | 4.04e5 | inactive |
| RpS18 | 1 | – | – | 6403 | 2.61e5 | inactive |
| APC10 | 1 | – | – | 5792 | 3.01e5 | inactive |
| Jasper | 1 | – | reporter ratio raised past the hit cutoff | 8667 | 4.06e5 | inactive |
| rin | 1 | reporter ratio raised past the hit cutoff | – | 6126 | 2.10e5 | inactive |
| rin | 2 | – | – | 3219 | 2.85e5 | inactive |
| Brd | 1 | – | – | 6942 | 2.81e5 | inactive |
| CG6048 | 1 | – | – | 5955 | 3.01e5 | inactive |
| Rad17 | 1 | – | – | 7162 | 4.14e5 | inactive |
| CG3526 | 1 | – | – | 7510 | 2.82e5 | inactive |
| CG3526 | 2 | – | – | 6491 | 3.16e5 | inactive |
| CG13723 | 1 | – | – | 7339 | 4.26e5 | inactive |
| bol | 1 | reporter ratio raised past the hit cutoff | – | 2080 | 55952 | inactive |
| bol | 2 | – | – | 6135 | 4.72e5 | inactive |
| bol | 3 | – | – | 5395 | 4.06e5 | inactive |
| Ada3 | 1 | – | – | 5926 | 4.41e5 | inactive |
| Ada3 | 2 | – | – | 6902 | 5.07e5 | inactive |
| PolA2 | 1 | – | – | 6778 | 3.97e5 | inactive |
| SMC6 | 1 | – | – | 6652 | 3.18e5 | inactive |
| Mrp4 | 1 | – | – | 5871 | 3.96e5 | inactive |
| bt | 1 | – | – | 6358 | 2.94e5 | inactive |
| bt | 2 | – | – | 5862 | 2.91e5 | inactive |
| CG14085 | 1 | – | – | 6831 | 3.75e5 | inactive |

Records listed so far whose target name starts with U or u (3):
| gene knocked down | reagent | stable siRNA reporter change | miRNA reporter change | stable assay Renilla, run 1 (luminescence) | stable assay firefly, run 1 (luminescence) | Call |
| --- | --- | --- | --- | --- | --- | --- |
| unc-5 | 1 | – | – | 5299 | 3.64e5 | inactive |
| unc-5 | 2 | – | – | 4471 | 2.90e5 | inactive |
| unc-5 | 3 | – | – | 5215 | 2.73e5 | inactive |
